From paper PMC6524796
No constants are given. Whether binding was seen depends on the method and setting. In cells and extracts the contact can be indirect. Some results given as binding are weak or reduced against the parent protein; the word gives no strength.

Columns and labels:
[1] = biological target: endogenous TDP-43 (human (endogenous in HEK293)) (UniProt Q13148); assay: co-IP; immunoprecipitation from HEK293 cell lysates with a specific anti-TDP-43 antibody, non-specific IgG as control; Western blot with anti-LonP1
[2] = biological target: Myc-tagged A315T-mutant TDP-43 (human) (UniProt Q13148); assay: co-IP; immunoprecipitation with a monoclonal anti-Myc antibody from lysates of HEK293 stable inducible cells (vector control, Myc-tagged Wt or A315T TDP-43), 36 hr after Tet-induction; Western blot with anti-LonP1
[3] = biological target: Myc-tagged wild type TDP-43 (human) (UniProt Q13148); assay: as above

Measured: binding

B1: LonP1 (endogenous) (enzyme, UniProt P36776 68-959)
chain: FWEASSRGGGAFSGGEDASEGGAEEGAGGAGGSAGAGEGPVITALTPMTIPDVFPHLPLIAITRNPVFPRFIKIIEVKNKKLVELLRRKVRLAQPYVGVFLKRDDSNESDVVESLDEIYHTGTFAQIHEMQDLGDKLRMIVMGHRRVHISRQLEVEPEEPEAENKHKPRRKSKRGKKEAEDELSARHPAELAMEPTPELPAEVLMVEVENVVHEDFQVTEEVKALTAEIVKTIRDIIALNPLYRESVLQMMQAGQRVVDNPIYLSDMGAALTGAESHELQDVLEETNIPKRLYKALSLLKKEFELSKLQQRLGREVEEKIKQTHRKYLLQEQLKIIKKELGLEKDDKDAIEEKFRERLKELVVPKHVMDVVDEELSKLGLLDNHSSEFNVTRNYLDWLTSIPWGKYSNENLDLARAQAVLEEDHYGMEDVKKRILEFIAVSQLRGSTQGKILCFYGPPGVGKTSIARSIARALNREYFRFSVGGMTDVAEIKGHRRTYVGAMPGKIIQCLKKTKTENPLILIDEVDKIGRGYQGDPSSALLELLDPEQNANFLDHYLDVPVDLSKVLFICTANVTDTIPEPLRDRMEMINVSGYVAQEKLAIAERYLVPQARALCGLDESKAKLSSDVLTLLIKQYCRESGVRNLQKQVEKVLRKSAYKIVSGEAESVEVTPENLQDFVGKPVFTVERMYDVTPPGVVMGLAWTAMGGSTLFVETSLRRPQDKDAKGDKDGSLEVTGQLGEVMKESARIAYTFARAFLMQHAPANDYLVTSHIHLHVPEGATPKDGPSAGCTIVTALLSLAMGRPVRQNLAMTGEVSLTGKILPVGGIKEKTIAAKRAGVTCIVLPAENKKDFYDLAAFITEGLEVHFVEHYREIFDIAFPDEQAEALAVER
binds: [1] | [2] | [3]
